# PubChem BioAssay AID1159578, Peter MacCallum Cancer Centre, 2015
# Assay: 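Knock-downs that alter how fast lymphatic endothelial cells migrate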 (primary screen)
# System: human lymphatic endothelial cells
# Knock-down reagent: siRNA pool against human genes, 40 nM
# Time to read-out: 48 h after transfection
# Read-out: 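Cells stained with dye and imaged after a scratch; covered wound area and nuclei counted, duplicates averaged, migration set against mock wells and turned into a robust z-score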
# Direction: migration robust z-score: higher = faster migration into the scratch; migration relative to mock: higher = more scratch area covered than mock; nuclei per well: higher = more cells in the well
# Active means: 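Pools averaging fewer than 3300 nuclei are never called; remaining pools count as changed when migration robust z lies outside -2 to 2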
# Calls: active = migration changed; inactive = no migration change, or too few cells
# Shown is an unselected part of about 18,000 reagents tested. Of all reagents, about 1,030 (5.7%) got an active call. 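Inactive calls also include pools with fewer than 3300 nuclei, whose migration was not assessed.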 The raw values are shown without normalisation.
target,migration robust z-score,migration class with cell-count check,migration relative to mock,"nuclei per well, duplicate mean",activity call
KRTAP10-2 (GeneID 386679),-2.23,migration z below -2; enough cells,0.31,6116,active
DEFA1 (GeneID 1667),-0.63,migration z between -2 and 2; enough cells,0.72,5112,inactive
BARD1 (GeneID 580),-0.08,migration z between -2 and 2; enough cells,0.79,5532,inactive
PTP4A1 (GeneID 7803),-0.13,migration z between -2 and 2; enough cells,0.78,5746,inactive
MLH3 (GeneID 27030),1.82,migration z between -2 and 2; enough cells,1.16,5025,inactive
PDCL3 (GeneID 79031),2.84,migration z above 2; enough cells,1.62,7192,active
FAM24A (GeneID 118670),2.97,migration z above 2; enough cells,1.65,6636,active
SERINC5 (GeneID 256987),1.28,migration z between -2 and 2; enough cells,1.22,5414,inactive
PPP1R16A (GeneID 84988),-0.75,migration z between -2 and 2; enough cells,0.69,5996,inactive
TNKS (GeneID 8658),-0.7,migration z between -2 and 2; enough cells,0.67,3826,inactive
EMX2 (GeneID 2018),0.52,under 3300 nuclei; migration not judged,0.9,1350,inactive
GYG1 (GeneID 2992),3.84,migration z above 2; enough cells,1.54,6521,active
FTHL17 (GeneID 53940),-0.66,migration z between -2 and 2; enough cells,0.72,5109,inactive
PWP2 (GeneID 5822),-0.78,migration z between -2 and 2; enough cells,0.68,6013,inactive
MBD3L1 (GeneID 85509),-0.66,migration z between -2 and 2; enough cells,0.72,5984,inactive
TRIL (GeneID 9865),0.86,migration z between -2 and 2; enough cells,0.97,5114,inactive
TFF1 (GeneID 7031),-1.31,migration z between -2 and 2; enough cells,0.54,4232,inactive
RBM42 (GeneID 79171),-0.7,migration z between -2 and 2; enough cells,0.7,6158,inactive
TSPAN10 (GeneID 83882),-0.45,migration z between -2 and 2; enough cells,0.77,6430,inactive
HOXD13 (GeneID 3239),1.06,migration z between -2 and 2; enough cells,1.01,6430,inactive
GPR132 (GeneID 29933),-2.44,under 3300 nuclei; migration not judged,0.34,3172,inactive
RBM25 (GeneID 58517),0.87,migration z between -2 and 2; enough cells,1.11,6382,inactive
BHLHE40 (GeneID 8553),0.35,migration z between -2 and 2; enough cells,0.98,6699,inactive
ZNF436-AS1 (GeneID 148898),0.08,migration z between -2 and 2; enough cells,0.9,5789,inactive
ALDOC (GeneID 230),0.08,migration z between -2 and 2; enough cells,0.82,4486,inactive
CERT1 (GeneID 10087),0.05,migration z between -2 and 2; enough cells,0.82,6323,inactive
TKTL1 (GeneID 8277),0.24,migration z between -2 and 2; enough cells,0.85,5128,inactive
ARF1 (GeneID 375),-1.48,migration z between -2 and 2; enough cells,0.52,4995,inactive
KRTAP9-2 (GeneID 83899),-1.46,under 3300 nuclei; migration not judged,0.5,2794,inactive
HOXD12 (GeneID 3238),0.14,migration z between -2 and 2; enough cells,0.92,5034,inactive
ZNF501 (GeneID 115560),-0.99,migration z between -2 and 2; enough cells,0.62,5186,inactive
PGAM2 (GeneID 5224),0.16,migration z between -2 and 2; enough cells,0.84,5730,inactive
OR2AT4 (GeneID 341152),0.12,migration z between -2 and 2; enough cells,0.92,6038,inactive
MON1A (GeneID 84315),0.04,migration z between -2 and 2; enough cells,0.9,6018,inactive
SHTN1 (GeneID 57698),0.57,migration z between -2 and 2; enough cells,1.04,4972,inactive
ZNF780B (GeneID 163131),0.16,migration z between -2 and 2; enough cells,0.92,6097,inactive

5 entries from above, set out differently.
MLH3 (GeneID 27030)
- migration robust z-score: 1.82
- migration class with cell-count check: migration z between -2 and 2; enough cells
- migration relative to mock: 1.16
- nuclei per well, duplicate mean: 5025
- activity call: inactive

PDCL3 (GeneID 79031)
- migration robust z-score: 2.84
- migration class with cell-count check: migration z above 2; enough cells
- migration relative to mock: 1.62
- nuclei per well, duplicate mean: 7192
- activity call: active

FAM24A (GeneID 118670)
- migration robust z-score: 2.97
- migration class with cell-count check: migration z above 2; enough cells
- migration relative to mock: 1.65
- nuclei per well, duplicate mean: 6636
- activity call: active

SERINC5 (GeneID 256987)
- migration robust z-score: 1.28
- migration class with cell-count check: migration z between -2 and 2; enough cells
- migration relative to mock: 1.22
- nuclei per well, duplicate mean: 5414
- activity call: inactive

PPP1R16A (GeneID 84988)
- migration robust z-score: -0.75
- migration class with cell-count check: migration z between -2 and 2; enough cells
- migration relative to mock: 0.69
- nuclei per well, duplicate mean: 5996
- activity call: inactive

The results go on:
target,migration robust z-score,migration class with cell-count check,migration relative to mock,"nuclei per well, duplicate mean",activity call
GPBP1 (GeneID 65056),0.32,migration z between -2 and 2; enough cells,0.97,6000,inactive
STX2 (GeneID 2054),1.29,migration z between -2 and 2; enough cells,1.06,6458,inactive
UBE2J1 (GeneID 51465),0.73,migration z between -2 and 2; enough cells,0.94,4823,inactive
LMO7 (GeneID 4008),-0.21,migration z between -2 and 2; enough cells,0.76,5087,inactive
DHX8 (GeneID 1659),-0.44,migration z between -2 and 2; enough cells,0.72,5960,inactive
SFR1 (GeneID 119392),-0.16,migration z between -2 and 2; enough cells,0.84,5536,inactive
PIK3R2 (GeneID 5296),-0.68,migration z between -2 and 2; enough cells,0.68,4010,inactive
EPS15 (GeneID 2060),0.98,migration z between -2 and 2; enough cells,1.14,5650,inactive
RHBDL2 (GeneID 54933),-0.28,migration z between -2 and 2; enough cells,0.75,5539,inactive
ELAPOR1 (GeneID 57535),-0.5,migration z between -2 and 2; enough cells,0.76,5552,inactive
ZNF833P (GeneID 401898),0.56,migration z between -2 and 2; enough cells,1.03,5174,inactive
CSTF2 (GeneID 1478),-0.87,migration z between -2 and 2; enough cells,0.66,5726,inactive
TIPIN (GeneID 54962),-0.18,migration z between -2 and 2; enough cells,0.84,6269,inactive
PNPO (GeneID 55163),-0.13,migration z between -2 and 2; enough cells,0.78,6435,inactive
CSK (GeneID 1445),-2.42,migration z below -2; enough cells,0.34,5689,active
ITPKC (GeneID 80271),-0.7,migration z between -2 and 2; enough cells,0.67,6554,inactive
BECN1 (GeneID 8678),-0.39,migration z between -2 and 2; enough cells,0.73,3703,inactive
SLC23A3 (GeneID 151295),0.73,migration z between -2 and 2; enough cells,0.94,6195,inactive
GPCPD1 (GeneID 56261),0.43,migration z between -2 and 2; enough cells,0.99,5247,inactive
CST6 (GeneID 1474),0.51,migration z between -2 and 2; enough cells,1.02,5699,inactive
XPA (GeneID 7507),-0.1,migration z between -2 and 2; enough cells,0.78,5833,inactive
NLN (GeneID 57486),-1.53,migration z between -2 and 2; enough cells,0.51,4796,inactive
ARHGAP11A (GeneID 9824),0.04,migration z between -2 and 2; enough cells,0.9,5810,inactive
NFIX (GeneID 4784),0.18,migration z between -2 and 2; enough cells,0.84,6512,inactive
ENTREP3 (GeneID 10712),1.31,migration z between -2 and 2; enough cells,1.23,6164,inactive
NRIP1 (GeneID 8204),-0.44,migration z between -2 and 2; enough cells,0.72,5630,inactive
GPR87 (GeneID 53836),-1.2,migration z between -2 and 2; enough cells,0.57,5043,inactive
SYT4 (GeneID 6860),1.32,migration z between -2 and 2; enough cells,1.23,5170,inactive
SLTM (GeneID 79811),0.3,migration z between -2 and 2; enough cells,0.97,6352,inactive
GABRR2 (GeneID 2570),-0.13,migration z between -2 and 2; enough cells,0.78,6506,inactive
SLC27A6 (GeneID 28965),0.75,migration z between -2 and 2; enough cells,0.95,6026,inactive
EIF2B2 (GeneID 8892),0.68,migration z between -2 and 2; enough cells,0.94,6385,inactive
DTD1 (GeneID 92675),2.67,migration z above 2; enough cells,1.58,6714,active
VNN1 (GeneID 8876),-1.58,migration z between -2 and 2; enough cells,0.5,5344,inactive
TAF10 (GeneID 6881),0.28,migration z between -2 and 2; enough cells,0.86,5286,inactive
S100A13 (GeneID 6284),-0.05,migration z between -2 and 2; enough cells,0.88,5652,inactive
NUP98 (GeneID 4928),0.65,migration z between -2 and 2; enough cells,0.93,5556,inactive
